Experimental findings from publication PMC11067213 are described below.

Protein sequences, listed by entry. Tags and fused reporters are not part of them. Lines headed by an entry give the natural chain unless they say otherwise; changes in a name come on top. Chains listed by the source or under a name are the forms on record and can include a tag or linker. Residues count along the entry.
FCN3-Flag (O75636-2, form named): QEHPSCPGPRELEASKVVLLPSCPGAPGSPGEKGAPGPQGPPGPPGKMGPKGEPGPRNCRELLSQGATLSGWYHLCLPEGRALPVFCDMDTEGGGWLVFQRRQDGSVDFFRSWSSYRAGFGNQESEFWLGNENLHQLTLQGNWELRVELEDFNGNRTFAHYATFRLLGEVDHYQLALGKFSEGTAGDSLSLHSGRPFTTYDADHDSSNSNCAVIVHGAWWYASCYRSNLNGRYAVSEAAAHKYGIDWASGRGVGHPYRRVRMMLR
UniProt P06213: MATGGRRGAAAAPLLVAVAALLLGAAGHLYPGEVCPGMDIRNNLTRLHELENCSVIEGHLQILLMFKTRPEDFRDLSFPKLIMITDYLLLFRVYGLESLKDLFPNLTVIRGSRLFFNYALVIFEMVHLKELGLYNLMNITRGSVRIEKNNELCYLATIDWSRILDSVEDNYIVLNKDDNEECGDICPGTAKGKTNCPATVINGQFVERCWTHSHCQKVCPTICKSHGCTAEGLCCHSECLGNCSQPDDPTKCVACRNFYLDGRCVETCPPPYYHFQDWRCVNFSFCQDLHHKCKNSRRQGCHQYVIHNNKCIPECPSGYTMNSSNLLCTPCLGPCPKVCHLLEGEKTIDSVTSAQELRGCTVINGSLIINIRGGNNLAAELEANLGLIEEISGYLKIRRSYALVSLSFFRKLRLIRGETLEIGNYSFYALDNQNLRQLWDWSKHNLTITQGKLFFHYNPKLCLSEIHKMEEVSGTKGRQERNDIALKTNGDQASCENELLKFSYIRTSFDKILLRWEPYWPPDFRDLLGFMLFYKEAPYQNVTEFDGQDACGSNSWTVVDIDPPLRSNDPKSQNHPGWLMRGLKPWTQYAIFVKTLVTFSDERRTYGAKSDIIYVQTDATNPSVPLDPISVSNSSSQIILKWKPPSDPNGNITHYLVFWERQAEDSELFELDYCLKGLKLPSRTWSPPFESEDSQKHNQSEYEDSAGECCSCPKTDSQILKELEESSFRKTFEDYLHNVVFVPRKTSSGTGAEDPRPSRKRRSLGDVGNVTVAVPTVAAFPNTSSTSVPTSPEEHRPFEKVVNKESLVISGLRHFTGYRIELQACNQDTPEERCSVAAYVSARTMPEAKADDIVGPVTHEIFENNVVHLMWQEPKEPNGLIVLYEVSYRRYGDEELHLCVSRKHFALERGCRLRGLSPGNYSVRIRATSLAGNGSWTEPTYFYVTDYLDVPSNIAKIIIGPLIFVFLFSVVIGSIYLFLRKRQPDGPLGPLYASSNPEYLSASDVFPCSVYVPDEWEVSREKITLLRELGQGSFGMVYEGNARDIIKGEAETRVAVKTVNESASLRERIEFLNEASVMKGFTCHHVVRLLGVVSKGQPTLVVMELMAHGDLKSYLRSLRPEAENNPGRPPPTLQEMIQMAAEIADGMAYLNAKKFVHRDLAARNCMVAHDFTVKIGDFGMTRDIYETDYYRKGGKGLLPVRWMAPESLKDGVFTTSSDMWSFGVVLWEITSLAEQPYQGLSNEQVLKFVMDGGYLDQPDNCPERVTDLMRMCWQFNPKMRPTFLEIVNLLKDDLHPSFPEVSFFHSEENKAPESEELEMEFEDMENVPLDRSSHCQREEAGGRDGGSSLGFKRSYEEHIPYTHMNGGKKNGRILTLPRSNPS
HA-tagged insulin receptor (pro-IR cDNA with a C-terminal HA-tag): residues 28-1382 of P06213

The target of one assay is nsFCN3-Flag (human) (UniProt O75636). Kind of assay: co-IP; reverse semi-endogenous co-IP: Flag antibody immunoprecipitation from lysates of HEK-293T cells transfected with FCN3-Flag or nsFCN3-Flag; protein A/G sepharose beads, IP lysis buffer, 4 °C overnight; blots for IR-β, pro-IR, PTP1B and FCN3.
In the next assay the target is FCN3-Flag (human) (UniProt O75636). Described as above.
Assay [1] concerns the target HA-tagged insulin receptor (pro-IR cDNA with a C-terminal HA-tag) (UniProt P06213). Kind of assay: co-IP; anti-HA immunoprecipitation of IR-HA from lysates of HEK-293T cells transfected with IR-HA, with or without FCN3 or nsFCN3; protein A/G sepharose beads, IP lysis buffer, 4 °C overnight; blots for FCN3, PTP1B, Furin and HA.

No constants are given. Whether binding was seen depends on the method and setting. Binding seen in cells or lysates may run through a third protein. Some binding calls cover weakened binding; strength is not graded here.

With “pro-insulin receptor (pro-IR) (from UniProt P06213 28-1382)”, the binding entry with nsFCN3-Flag (human) and in the assay with FCN3-Flag (human) was “binds” in each case.
Regarding “Ficolin 3 (FCN3) (from UniProt O75636-2 24-288)”, the binding result in assay [1] was “binds”.
In the case of “insulin receptor β (IR-β), endogenous (from UniProt P06213 763-1382)”, the binding result with nsFCN3-Flag (human) and with FCN3-Flag (human) was “binds” in each case.
“no-secretory mutant of FCN3 (nsFCN3, Δaa 2–23) (from UniProt O75636-2 24-288)”: the binding entry in assay [1] is “binds”.

B1: protein tyrosine phosphatase nonreceptor type 1 (PTP1B) (enzyme, UniProt P18031 1-435)
chain: MEMEKEFEQIDKSGSWAAIYQDIRHEASDFPCRVAKLPKNKNRNRYRDVSPFDHSRIKLHQEDNDYINASLIKMEEAQRSYILTQGPLPNTCGHFWEMVWEQKSRGVVMLNRVMEKGSLKCAQYWPQKEEKEMIFEDTNLKLTLISEDIKSYYTVRQLELENLTTQETREILHFHYTTWPDFGVPESPASFLNFLFKVRESGSLSPEHGPVVVHCSAGIGRSGTFCLADTCLLLMDKRKDPSSVDIKKVLLEMRKFRMGLIQTADQLRFSYLAVIEGAKFIMGDSSVQDQWKELSHEDLEPPPEHIPPPPRPPKRILEPHNGKCREFFPNHQWVKEETQEDKDCPIKEEKGSPLNAAPYGIESMSQDTEVRSRVVGGSLRGAQAASPAKGEPSLPEKDEDHALSYWKPFLVNMCVATVLTAGAYLCYRFLFNSNT
With B1, the binding result (in assay [1]; with nsFCN3-Flag (human); with FCN3-Flag (human)) was “binds” each time.
